For test [1], the target named is DAF (immunoaffinity purified with LU20 or LU13, detected by western blot) (UniProt P08174). Nature of the test: immunoaffinity purification followed by western blotting with anti-DAF antibody IA10. A general note: Immunoblotting shows a protein as a band on a membrane.
Test [2] addresses decay accelerating factor (DAF, CD55) on cells (UniProt P08174). Nature of the test: flow cytometry with scFv fragment 3 µg/ml on live cells (1264, A549, CALU6, SKLU1, BEAS-2B, NHEK), detected with anti-hexahistidine antibody and FITC anti-mouse F(ab')2; the filing names DAF as the antigen of LU20 by immunoaffinity purification and western blot.
Test [3] shares this target. Briefly: flow cytometry with scFv fragment 3 µg/ml on live cells (1264, A549, CALU6, SKLU1, BEAS-2B, NHEK), detected with anti-hexahistidine antibody and FITC anti-mouse F(ab')2; the filing names DAF as the antigen of LU13 by immunoaffinity purification and western blot. A general note: In flow cytometry, cells or beads pass a laser one at a time.
For test [4], the target named is T1, recombinant human DAF (human, UniProt P08174 35-353, limits assumed).
T1 construct: also called decay accelerating factor; CD55
T1 sequence (looked up): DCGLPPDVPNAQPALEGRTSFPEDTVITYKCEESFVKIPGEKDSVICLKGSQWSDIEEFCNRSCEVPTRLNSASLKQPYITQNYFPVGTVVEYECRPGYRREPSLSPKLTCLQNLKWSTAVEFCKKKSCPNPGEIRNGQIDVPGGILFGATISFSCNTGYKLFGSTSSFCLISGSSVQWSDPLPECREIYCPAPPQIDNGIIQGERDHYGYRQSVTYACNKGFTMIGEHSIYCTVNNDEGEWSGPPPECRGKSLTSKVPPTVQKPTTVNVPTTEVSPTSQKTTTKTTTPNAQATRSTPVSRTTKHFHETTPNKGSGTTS
Nature of the test: competition in flow cytometry: LU30 scFv 3 µg/ml on 1264 cells, competitor recombinant human DAF 30 µg/ml (single concentration).

The target of test [5] is T1, recombinant human DAF. Briefly: flow cytometry on 1264 cells, soluble recombinant human DAF as competitor.

These are yes or no findings as the source states them, for the method shown. Some binding calls cover weakened binding; strength is not graded here.

B1: LU20 scFv (scFv, V domains shown, not shown: small tags and cut ends)
VH: EVQLVETGGGLVQPGRSLRLSCAASGFTFEDYGMHWVRQAPGKGLEWVSGINWNGGSTGYADSVKGRFTISRDNAKNSLYLQMNSLRAEDTALYYCARDAPSGSYGYWFDPWGQGTLVTVSS
VL: DIQMTQSPSTLSASIGDRVTITCRASEGIYHWLAWYQQKPGKAPKLLIYKASSLASGAPSRFSGSGSGTDFTLTISSLQPDDFATYYCQQYSNYPLTFGGGTKLEIK
For the molecule B1, the binding result in test [1] and in test [2] was “binds” throughout.

B2: LU13 scFv (scFv, V domains shown, not shown: small tags and cut ends)
VH: QVQLQESGGNLVQPGGSLRLSCAASGFTFSSYAMSWVRQAPGKGLEWVSAISGSGGNTYYADSVKGRFTISRDNSKNTLYLQMNTLRAEDTAVYYCARRASYDYWGQGTMVTVSS
VL: QSVLTQPASVSGSPGQSITVSCTGTSSDVGGYNYVSWYQQHPGKAPKLMIYEGSKRPSGVSNRFSGSKSGNTASLTISGLQAEDEADYYCSSYTTRSTRVFGGGTKLTVL
For the molecule B2, the binding entry in test [1] and in test [3] was “binds” in each case.

B3: LU30 scFv (scFv, V domains shown)
VH: QVKLQESGGGLVQPGGSLKLSCAASGFTFSGYGMSWIRQTPDKRLEWVATINSGGSYTYYSDSVKGRFTISRDNVKNTLYLQMSSLKSEDTAMYYCARRNGTLYYYLMDYWGRGTLVTVSS
VL: QSVLTQPPSASGSPGQSVTISCTGTSSDVGGYNYVSWYQQHPGKAPKFMIYDVSKRPSGVSNRFSGSKSGNTASLTISGVQAEDEADYYCSSYTSASTVIFGGGTKLTVL
notes: Human scFv from a naive phage library, secreted from E. coli and purified through its His tag; also called clone LU30; LU30 scFv fragment; not shown: scFv linker between the domains, domain order, and the His tag
As to B3, the binding entry with recombinant human DAF [4] and with recombinant human DAF [5] was “binds” in each case.

The values are drawn from patent US20080166698A1 (Genentech, published 2008).
